Laboratory results from the supplement of paper PMC6078165.

Legend:
Assay in all cases: relative JC-1 red fluorescence (viability) vs pre-drug, monoculture (fraction); higher = more viable cancer cells
Settings in all cases: coculture fibroblast: none (monoculture)
Hs578T = test system: Hs578T
Description: (§1)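 JC-1 labelled TNBC cells grown in monoculture (density kept equal with unlabelled cancer cells) in 384-well plates in FluoroBrite medium, treated with one of 42 anticancer drugs at 0.1, 1, 10 or 100 uM. JC-1 red fluorescence (mitochondrial integrity, surrogate of apoptotic death) was read by plate reader every 8 h for 72 h. Values are normalised to each well's pre-drug value, with background from alamethicin. The stock of one drug was tenfold lower, so its dose labels may be too high. Monoculture values are repeated alongside each fibroblast plate and are averaged here.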

HCC1143 = test system: HCC1143
Description: as §1

MDAMB468 = test system: MDAMB468
Description: as §1

BT20 = test system: BT20
Description: as §1

CCc1c2c(nc3ccc(OC(=O)N4CCC(N5CCCCC5)CC4)cc13)-c1cc3c(c(=O)n1C2)COC(=O)[C@]3(O)CC [Irinotecan]
relative JC-1 red fluorescence
Settings | 8 h | 16 h | 24 h | 32 h | 40 h | 48 h | 56 h | 64 h | 72 h
BT20, 0.1 µM | 0.96 | 0.898 | 0.862 | 0.779 | 0.744 | 0.729 | 0.702 | 0.697 | 0.687
BT20, 1 µM | 0.895 | 0.859 | 0.859 | 0.796 | 0.784 | 0.794 | 0.783 | 0.784 | 0.785
BT20, 10 µM | 0.963 | 0.8831 | 0.885 | 0.816 | 0.79 | 0.792 | 0.774 | 0.784 | 0.788
BT20, 100 µM | 0.929 | 0.9349 | 0.963 | 0.8984 | 0.878 | 0.8908 | 0.877 | 0.8833 | 0.8922
HCC1143, 0.1 µM | 0.916 | 0.831 | 0.778 | 0.74 | 0.694 | 0.666 | 0.643 | 0.631 | 0.631
HCC1143, 1 µM | 0.8682 | 0.759 | 0.674 | 0.617 | 0.564 | 0.528 | 0.5 | 0.48 | 0.465
HCC1143, 10 µM | 0.9149 | 0.8381 | 0.793 | 0.752 | 0.7103 | 0.69 | 0.6626 | 0.6529 | 0.642
HCC1143, 100 µM | 0.937 | 0.904 | 0.805 | 0.712 | 0.666 | 0.655 | 0.647 | 0.6482 | 0.641
Hs578T, 0.1 µM | 0.825 | 0.698 | 0.662 | 0.6 | 0.566 | 0.55 | 0.528 | 0.525 | 0.525
Hs578T, 1 µM | 0.81 | 0.674 | 0.633 | 0.549 | 0.508 | 0.478 | 0.461 | 0.469 | 0.471
Hs578T, 10 µM | 0.878 | 0.7588 | 0.754 | 0.687 | 0.656 | 0.644 | 0.626 | 0.624 | 0.619
Hs578T, 100 µM | 0.8479 | 0.832 | 0.8 | 0.724 | 0.669 | 0.626 | 0.594 | 0.599 | 0.586
MDAMB468, 0.1 µM | 0.90536 | 0.834 | 0.74978 | 0.679 | 0.647 | 0.613 | 0.58 | 0.562 | 0.543
MDAMB468, 1 µM | 0.868 | 0.754 | 0.748 | 0.717 | 0.674 | 0.681 | 0.65 | 0.643 | 0.641
MDAMB468, 10 µM | 0.92 | 0.875 | 0.819 | 0.754 | 0.717 | 0.685 | 0.636 | 0.595 | 0.574
MDAMB468, 100 µM | 0.8575 | 0.85 | 0.848 | 0.794 | 0.76 | 0.764 | 0.74 | 0.722 | 0.709

COc1cc([C@@H]2c3cc4c(cc3[C@@H](O[C@@H]3O[C@@H]5CO[C@@H](c6cccs6)O[C@H]5[C@H](O)[C@H]3O)[C@H]3COC(=O)[C@H]23)OCO4)cc(OC)c1O [Teniposide]
relative JC-1 red fluorescence
Settings | 8 h | 16 h | 24 h | 32 h | 40 h | 48 h | 56 h | 64 h | 72 h
BT20, 0.1 µM | 0.9288 | 0.945 | 0.843 | 0.828 | 0.822 | 0.9174 | 0.842 | 0.908 | 0.86
BT20, 1 µM | 0.918 | 0.8785 | 0.905 | 0.839 | 0.842 | 0.735 | 0.796 | 0.766 | 0.81
BT20, 10 µM | 0.93 | 0.8899 | 0.909 | 0.824 | 0.815 | 0.826 | 0.823 | 0.837 | 0.834
BT20, 100 µM | 0.932 | 0.917 | 0.89 | 0.792 | 0.858 | 0.846 | 0.802 | 0.8929 | 0.8885
HCC1143, 0.1 µM | 0.85 | 0.7894 | 0.7484 | 0.694 | 0.658 | 0.631 | 0.621 | 0.616 | 0.606
HCC1143, 1 µM | 0.847 | 0.772 | 0.739 | 0.713 | 0.677 | 0.669 | 0.661 | 0.676 | 0.676
HCC1143, 10 µM | 0.9036 | 0.8362 | 0.779 | 0.717 | 0.645 | 0.621 | 0.594 | 0.582 | 0.577
HCC1143, 100 µM | 0.848 | 0.777 | 0.725 | 0.721 | 0.707 | 0.722 | 0.712 | 0.698 | 0.696
Hs578T, 0.1 µM | 0.829 | 0.7194 | 0.715 | 0.62 | 0.584 | 0.564 | 0.538 | 0.545 | 0.533
Hs578T, 1 µM | 0.7932 | 0.687 | 0.6534 | 0.5729 | 0.522 | 0.501 | 0.4739 | 0.481 | 0.476
Hs578T, 10 µM | 0.876 | 0.824 | 0.8227 | 0.764 | 0.725 | 0.707 | 0.679 | 0.672 | 0.663
Hs578T, 100 µM | 0.882 | 0.843 | 0.8966 | 0.8368 | 0.8257 | 0.8207 | 0.809 | 0.816 | 0.826
MDAMB468, 0.1 µM | 0.84 | 0.729 | 0.73 | 0.658 | 0.625 | 0.614 | 0.57 | 0.551 | 0.555
MDAMB468, 1 µM | 0.848 | 0.747 | 0.722 | 0.626 | 0.586 | 0.576 | 0.5479 | 0.529 | 0.5174
MDAMB468, 10 µM | 0.874 | 0.787 | 0.739 | 0.655 | 0.598 | 0.568 | 0.518 | 0.507 | 0.499
MDAMB468, 100 µM | 0.9269 | 0.919 | 0.921 | 0.843 | 0.769 | 0.764 | 0.721 | 0.704 | 0.701

Values are relative to the signal before dosing, not to a vehicle control; the signal also falls without drug.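 The tumor cells are basal-like or mesenchymal-like triple-negative breast cancer lines cultured without fibroblasts. Reduced red signal indicates lost mitochondrial integrity, serving as a proxy for apoptotic death.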
